Experimental data as given in patent publication US9962341B2, “Active pharmaceutical ingredient (API) comprising cannabinoids for use in the treatment of cancer” (GW Pharma Limited, priority 2014, dated 2018).

Key:
Format in all cases: cell-based
HGC-27 = experiment: Cell viability (CellTiter-Blue, 72 h), HGC-27 gastric cancer cells; settings: HGC27 cells, 1% FBS
Method: (§1) The following cell lines were tested in this example: Lung Cancer (A549, NCI-H460); Pancreatic cancer (PANC1, Mia-Pa-Ca-2); Melanoma (WM115, A375); Ovarian cancer (OVCAR3, SKOV3); Gastric cancer (MKN45, HGC-27); Renal cancer (ACHN) and Bladder Cancer (RT112).
(§2) Each tumour cell line was maintained in vitro in RPMI 1640+10% heat inactivated FBS and 2 mM L-glutamine (growth media) at 37° C. in 5% CO2 and humidified conditions. The cells were harvested, washed, re-suspended into growth medium and counted. The cells were re-suspended into assay media (RPMI 1640+5% heat inactivated FBS+ and 2 mM L-glutamine) at 4×10^4 cells/ml (dependent upon cell type) and plated into the middle 240 wells of 384 well tissue culture plates (Corning CellBind, black-wall plates) 25 μl/well aliquots; 50 μl of growth media was aliquoted into the outer wells. There were 3 plates for each cell line.
(§3) The plates were incubated overnight at 37° C., in 5% humidified CO2.
(§4) The phytocannabinoid test compounds were prepared in 100% DMSO vehicle at a stock concentration of 20 and 40 mM.
(§5) Starting with the 20 mM stock in DMSO, this was serially diluted (2 fold) in DMSO in a 96-well plate, to 20 (no dilution), 10, 5, 2.5, 1.25, 0.625, 0.315, 0.157 and […]. Following this, 10 ul of each compound dilution was diluted into 990 ul of 1% (v/v) FBS media in a deep well block making the final concentrations of 200, 100, 50, 25, 12.5, 6.25, 3.125, 1.56 and 0.79 μM (2× final assay concentrations and 1% DMSO).
(§6) An equal volume of each cannabinoid in the combination (stock concentration 40 mM) was mixed together to make a stock of 20 mM of each cannabinoid in DMSO. This was serially diluted (2 fold) in DMSO in a 96-well plate, to 20 (no dilution), 10, 5, 2.5, 1.25, 0.625, 0.315, 0.157 and […]. Following this, 10 ul of each combination dilution was diluted into 990 ul of 1% (v/v) FBS media in a deep well block making the final concentrations of 200, 100, 50, 25, 12.5, 6.25, 3.125, 1.56 and 0.79 μM (2× final assay concentrations and 1% DMSO).
(§7) Cisplatin (stock of 1 mg/ml=3.33 mM in water) was diluted in 1% FBS media to give a stock concentration of 1 mM. This was then diluted in 1% FBS media from the stock solution to 200 μM, then serially diluted (3-fold) in 1% FBS media to 200 (no dilution), 66.66, 22.22, 7.41, 2.47, 0.82, 0.27, 0.09, 0.03 μM (2× final assay concentrations; no DMSO).
(§8) The plates were incubated for 72 h at 37° C. in 5% humidified CO2. To develop the plates, at 72 h, 10 μl of CellTiter-Blue™ reagent was added to each test/blank well.
(§9) The plates were incubated at 37° C., 5% humidified CO2. Fluorescence was measured using a Flex II Station plate reader (570 nm excitation wavelength, 600 nm emission wavelength, 590 nm cut-off) after 3 h.
(§10) The phytocannabinoid compounds CBD, CBGA, CBG, CBDA, THCV and THC were tested on a panel of lung (A549, NCI-H460), pancreatic (PANC1, Mia-Pa-Ca-2), melanoma (WM115, A375), ovarian (OVCAR3, SKOV3), gastric (MKN45, HGC-27), renal (ACHN) and bladder (RT112) cancer cell lines according to the protocol for 72 h in media containing 1% FBS.
(§11) The IC50 values for each phytocannabinoid and combination of CBD with the other phytocannabinoids was calculated for each cell line. The raw data values expressed in relative fluorescent units were normalised to the vehicle for each individual plate and any reduction in fluorescence indicated a decrease in viability.
(§12) This calculation was as described in Example 1 above.

MKN45 = experiment: Cell viability (CellTiter-Blue, 72 h), MKN45 gastric cancer cells; settings: 1% FBS
Method: as §1, §2, §3, §4, §5, §6, §7, §8, §9, §10, §11, §12

PANC-1 = experiment: Cell viability (CellTiter-Blue, 72 h), PANC-1 pancreatic cancer cells; settings: PANC-1, 1% FBS
Method: as §1, §2, §3, §4, §5, §6
Gemcitabine SOC was prepared in 100% DMSO to give a stock concentration of 20 mM. This was then serially diluted (3 fold) in DMSO in a 96-well plate, to 20 (no dilution), 6.6, 2.2, 0.741, 0.247, 0.082, 0.027, 0.009 and 0.003 mM. Following this, 10 ul of each dilution was further diluted into 990 ul of 1% (v/v) FBS media making the final concentrations of 200 (no dilution), 66.66, 22.22, 7.41, 2.47, 0.82, 0.27, 0.09, 0.03 μM (2× final assay concentrations and 1% DMSO).
as §8, §9, §10, §11, §12

SKOV3 = experiment: Cell viability (CellTiter-Blue, 72 h), SKOV3 ovarian cancer cells; settings: 1% FBS
Method: as §1, §2, §3, §4, §5, §6, §7, §8, §9, §10, §11, §12

SMILES | m (shape parameter of the curve) (HGC-27) | m (shape parameter of the curve) (MKN45) | m (shape parameter of dose effect curve) (PANC-1) | m (shape parameter of the curve) (SKOV3)
C=C(C)[C@@H]1CCC(C)=C[C@H]1c1c(O)cc(CCCCC)cc1O [CBD, Cannabidiol] | 4.61 | 9.82 | 7.80 | 6.45
C=C(C)[C@@H]1CCC(C)=C[C@H]1c1c(O)cc(CCCCC)c(C(=O)O)c1O [CBDA, Cannabidiolic acid] | 3.86 | 2.98 | 3.11 | 2.76
CCCCCc1cc(O)c(C/C=C(\C)CCC=C(C)C)c(O)c1 [CBG, Cannabigerol] | 4.77 | 10.80 | 5.52 | 8.30
CCCCCc1cc(O)c(C/C=C(\C)CCC=C(C)C)c(O)c1C(=O)O [CBGA, Cannabigerolic acid] | 2.41 | 3.48 | 4.12 | 4.58
CCCc1cc(O)c2c(c1)OC(C)(C)[C@@H]1CCC(C)=C[C@@H]21 [THCV, Tetrahydrocannabivarin] | 1.60 | 5.90 | 6.63 | 6.50
